The source of these data is doi:10.1101/2025.10.24.684426 (bioRxiv, 2025).

For this assay, the target named is T1, EhCaBP1 (calcium binding protein 1), recombinant (E. histolytica) (UniProt P38505).
T1 sequence: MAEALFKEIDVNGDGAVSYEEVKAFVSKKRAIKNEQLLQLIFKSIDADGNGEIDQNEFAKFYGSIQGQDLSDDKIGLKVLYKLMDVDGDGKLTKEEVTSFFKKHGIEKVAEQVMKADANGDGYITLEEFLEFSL
As to the kind of experiment: BLI.

No constants are given. Whether binding was seen depends on the method and setting. Sequences can lack the tags named with a protein.

Regarding ILSKLHHPFLVNLYYSFQ [EhPHDK Peptide 1 (surface of the kinase core)], the binding entry is “no binding (tested: 50µM to 550 µM)”.
